# Assay results taken from PubChem BioAssay AID2417 (National Center for Advancing Translational Sciences (NCATS), 2010).
# The whole screen tested about 140,000 compounds, of which about 4,300 (3.1%) were called active. The inconclusive results got no clear call from the source; some entries with a clear call stand among them for comparison.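 Rule for the calls: active = readout at or below -70, meaning at least 70% loss of cells showing the perinucleolar compartment, a nuclear body marking cancer cells; inconclusive = readout between -30 and a set limit; inactive = the rest.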
# Experiment: High Content Assay for Compounds that inhibit the Assembly of the Perinucleolar Compartment;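 note: plate controls were DMSO wells for no effect and camptothecin positive control wells for full effect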
# Conditions: PC3M PTB-GFP, PNC prevalence imaging, 16 h; at 10 µM; hits give low values
# In short: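 PC3M cells stably expressing PTB-GFP, 750–1000 cells/well, treated 16 h at 37 °C with compound (23 nl of library stock), in duplicate. After paraformaldehyde fixation and Hoechst stain, imaged at 20x; PNC prevalence scored by image analysis.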
row,SMILES,"activity change (PNC), negative = inhibition"
1,COc1cccc(C(c2sc3nc(C)nn3c2O)N2CCc3ccccc3C2)c1 (configuration not stated),inactive: 14.4%
2,CC12CCC(C(=O)N(c3cccc(Cl)c3)C1=O)C2(C)C (configuration not stated),inconclusive: -33.3%
3,O=C(Nc1ccccn1)c1cccc(S(=O)(=O)N2CCCCC2)c1,inconclusive: -69.6%
4,O=C(O)CSCc1nc2ccccc2s1,inconclusive: -48.6%
5,COc1cc(C2Nc3cccc4cccc(c34)N2)cc(OC)c1OC(C)=O,inconclusive: -47.6%
6,COc1ccc2cc3cc(C(=O)NCCc4ccc(OC)c(OC)c4)oc3nc2c1,inconclusive: -34.7%
7,CCOn1c(SCC)nc2ccccc2c1=O,inconclusive: -35.6%
8,CCOc1cc(/C=N/NS(=O)(=O)c2ccccc2)ccc1OS(=O)(=O)c1ccc(C)cc1,inactive: -13.6%
9,COc1ccc(C2CC23N=C(c2ccccc2)OC3=O)cc1 (configuration not stated),inconclusive: -37%
10,Cc1nn(-c2ccccc2)c(Cl)c1/C=C(\CC(=O)O)c1nc2ccccc2s1,inconclusive: -69%
11,CC1CC(C)CN(S(=O)(=O)c2ccc(C(=O)NCCCn3ccnc3)cc2)C1 (configuration not stated),inconclusive: -67.7%
12,O=C(O)c1ccc(NS(=O)(=O)c2ccc3nnn(O)c3c2)cc1,active: -107%
13,Cc1ccc(-c2nn(-c3ccccc3)c3[nH]c(=O)c(CNCc4ccccc4)cc23)cc1,inactive: 86.9%
14,CCOC(=O)c1ccc(NC(=O)CC2NCCNC2=O)cc1 (configuration not stated),inactive: 10.4%
15,N#Cc1cn(-c2ccccc2)nc1-c1ccc2c(c1)OCCO2,active: -100%
16,O=C(COC(=O)C1CCN(S(=O)(=O)c2ccc3c(c2)OCCO3)CC1)Nc1ccccc1OC(F)F,inconclusive: -47.6%
17,Cc1ccc(/C=C/C(=O)O)cc1S(=O)(=O)N(CCO)CCO,active: -103%
18,COc1cnc(-c2ccccc2)nc1Oc1ccc(C(C)(C)C)cc1,inconclusive: -31.2%
19,CC1=Cc2ccccc2C(C#N)N1C(=O)c1ccccc1 (configuration not stated),inconclusive: -56.3%

row,SMILES,"activity change (PNC), negative = inhibition"
1,COc1ccc(Cl)cc1NS(=O)(=O)c1ccc(OC)c(OC)c1,inactive: 0.689%
2,CCc1ccccc1NC(=O)C1c2ccccc2Oc2ccccc21,inconclusive: -59%
3,N#C/C(=C1/CCCCCN1)c1nc2ccccc2s1,inconclusive: -34%
4,CCN(CC)S(=O)(=O)c1ccc(C(=O)NCCc2cc3c(OC)ccc(OC)c3[nH]c2=O)cc1,inconclusive: -50.8%
5,COc1ccc(CN2C(=O)Cc3c2nc(N)c2c(N)nc(N4CCCCC4)c(C#N)c32)cc1,inconclusive: -56.1%
6,CS(=O)(=O)N(CC(=O)N1CCCCCC1)Cc1ccc(Cl)cc1,active: -107%
7,CSc1ccc(S(=O)(=O)NCc2ccccc2Cl)cc1,inactive: 5.82%
8,COc1ccccc1NC(=O)N1CCC(C(=O)c2ccc(F)cc2)CC1,inactive: -15.2%
9,COc1ccc(-c2nc(NC(=O)c3ccc(OCC(=O)Nc4ccc(F)cc4)c(OC)c3)sc2C)cc1,inactive: -20.6%
10,Cc1cccc(N2CC(=O)N(c3cccc(C)c3)CC2=O)c1,inconclusive: -59.6%
11,CCOc1cc(C2NC(=O)NC(c3ccccc3)=C2C(C)=O)ccc1OCC(N)=O (configuration not stated),inconclusive: -33.5%
12,CCN(CC)c1ccc(C(=O)OCC(=O)Nc2cccc(S(=O)(=O)NC3=NCCCCC3)c2)cc1,inconclusive: -41.1%
13,O=C(NC(=S)NNC(=O)c1cccs1)c1ccco1,inactive: 26%
14,C=CCNC(=O)c1ccc(-c2nc(-c3ccccc3)cs2)cc1,inconclusive: -39%
15,Cn1c(CCNC(=O)c2ccccc2F)nnc1SCc1nc2ccccc2c(=O)[nH]1,inconclusive: -49.7%
16,Cc1occc1C(=O)NNC(=S)Nc1cccc([N+](=O)[O-])c1,inconclusive: -35.3%
17,Cn1c(COc2ccc(Br)cc2)nnc1SC1CCc2ccccc2C1=O (configuration not stated),inconclusive: -67.1%
18,CC(CNc1ccccc1O)C(=O)O (configuration not stated),inactive: 22.9%
19,O=C(CCn1nnc2ccccc21)Nc1nnc(Cc2ccccc2)s1,inactive: -15.9%

row,SMILES,"activity change (PNC), negative = inhibition"
1,Cn1c(CN2CCCCC2)nc2cc(NC(=O)c3ccc(F)cc3)ccc21,inconclusive: -65.7%
2,COCC(=O)Nc1ccccc1C(=O)Nc1ccc(OC)cc1,inactive: 10.8%
3,COc1ccc(S(=O)(=O)N2Cc3ccccc3CC2C(=O)Nc2ccc(O)cc2)cc1OC (configuration not stated),inconclusive: -41.7%
4,CCOC(CNC(=O)CCc1c(C)nc2ncnn2c1C)OCC,inconclusive: -37.1%
5,Cc1cc(C)n(C(=O)c2cc3sccc3[nH]2)n1,inconclusive: -38.2%
6,Cn1c(=O)c2c(nc(CN3CCOCC3)n2CCCc2ccccc2)n(C)c1=O,inactive: -1.71%
7,CCc1ccc(NC(=O)c2ccc3c(c2)C(=O)N(Cc2ccco2)C3=O)cc1,inconclusive: -48.9%
8,CCOc1ccc2nc(SCC(=O)N3CCCc4ccccc43)sc2c1,inconclusive: -52.3%
9,Oc1ccccc1C=NC1=NN(c2cccc(C(F)(F)F)c2)CC1,inactive: -14.7%
10,O=C(NCCC1=CCCCC1)C1CCN(S(=O)(=O)c2cccc3nsnc23)CC1,inactive: -20.2%
11,O=C(CSc1ccc2ccccc2c1)Nc1ccc(S(=O)(=O)Nc2nccs2)cc1,inconclusive: -31.5%
12,CCCC(=O)Nc1ccc(N2CCN(S(C)(=O)=O)CC2)cc1,inconclusive: -45.4%
13,Cc1ccc(CN2CC(C(=O)Nc3ccc4c(C)cc(=O)oc4c3)CC2=O)cc1 (configuration not stated),inconclusive: -39.7%
14,Cc1cc(NC(=O)C2CCCC2)nc2c1c(=O)oc1ccccc12,inactive: 41.4%
15,CCCNS(=O)(=O)c1ccc(OCC(=O)NCCCOC)cc1,inconclusive: -52.6%
16,CC1CC(=O)C2=C(C1)Nc1ncnn1C2c1ccccc1 (configuration not stated),inactive: -1.13%
17,CCc1cccc(CC)c1NC(=O)COc1ccccc1C(=O)c1cc(C#N)c(=O)n(C2CCCCC2)c1,inactive: -12.2%
18,COc1cccc(NC(=O)C2C3C=CC(O3)C2C(=O)NCc2cccnc2)c1 (configuration not stated),inconclusive: -44%
19,CCc1nc(SCC(=O)NCc2ccco2)c2c3c(sc2n1)CCCC3,inactive: -25.4%

# Four compounds picked at random from those above:
row,SMILES,"activity change (PNC), negative = inhibition"
4,CCOC(CNC(=O)CCc1c(C)nc2ncnn2c1C)OCC,inconclusive: -37.1%
9,Oc1ccccc1C=NC1=NN(c2cccc(C(F)(F)F)c2)CC1,inactive: -14.7%
15,CCCNS(=O)(=O)c1ccc(OCC(=O)NCCCOC)cc1,inconclusive: -52.6%
16,CC1CC(=O)C2=C(C1)Nc1ncnn1C2c1ccccc1 (configuration not stated),inactive: -1.13%
